The record followed here is the supplement of paper PMC6411743.

Protein sequences, listed by entry. Tags and fused reporters are not part of them. Lines headed by an entry give the natural chain unless they say otherwise; changes in a name come on top.
UniProt Q9BTD8: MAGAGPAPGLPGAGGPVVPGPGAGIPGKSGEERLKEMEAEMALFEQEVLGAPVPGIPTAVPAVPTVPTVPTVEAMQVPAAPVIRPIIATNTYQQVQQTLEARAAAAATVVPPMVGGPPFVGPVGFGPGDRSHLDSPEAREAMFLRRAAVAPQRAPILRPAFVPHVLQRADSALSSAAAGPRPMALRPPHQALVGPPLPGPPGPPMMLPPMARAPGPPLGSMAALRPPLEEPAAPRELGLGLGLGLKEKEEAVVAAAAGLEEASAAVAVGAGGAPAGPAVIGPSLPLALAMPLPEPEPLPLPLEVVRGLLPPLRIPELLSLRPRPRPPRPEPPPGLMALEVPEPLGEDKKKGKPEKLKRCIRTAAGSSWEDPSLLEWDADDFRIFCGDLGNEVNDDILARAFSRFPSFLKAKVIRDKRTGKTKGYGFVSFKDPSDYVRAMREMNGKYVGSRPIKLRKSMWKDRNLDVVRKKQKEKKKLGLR
UniProt Q9BR61: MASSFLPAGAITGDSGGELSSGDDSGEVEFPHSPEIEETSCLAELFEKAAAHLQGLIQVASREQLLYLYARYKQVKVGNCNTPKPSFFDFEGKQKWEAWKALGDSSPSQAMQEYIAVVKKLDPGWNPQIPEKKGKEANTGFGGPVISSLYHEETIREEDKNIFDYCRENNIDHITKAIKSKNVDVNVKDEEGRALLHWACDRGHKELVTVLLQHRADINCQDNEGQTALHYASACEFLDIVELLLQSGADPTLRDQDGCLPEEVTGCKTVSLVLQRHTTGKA
UniProt Q9BPX3, whole entry, looked up: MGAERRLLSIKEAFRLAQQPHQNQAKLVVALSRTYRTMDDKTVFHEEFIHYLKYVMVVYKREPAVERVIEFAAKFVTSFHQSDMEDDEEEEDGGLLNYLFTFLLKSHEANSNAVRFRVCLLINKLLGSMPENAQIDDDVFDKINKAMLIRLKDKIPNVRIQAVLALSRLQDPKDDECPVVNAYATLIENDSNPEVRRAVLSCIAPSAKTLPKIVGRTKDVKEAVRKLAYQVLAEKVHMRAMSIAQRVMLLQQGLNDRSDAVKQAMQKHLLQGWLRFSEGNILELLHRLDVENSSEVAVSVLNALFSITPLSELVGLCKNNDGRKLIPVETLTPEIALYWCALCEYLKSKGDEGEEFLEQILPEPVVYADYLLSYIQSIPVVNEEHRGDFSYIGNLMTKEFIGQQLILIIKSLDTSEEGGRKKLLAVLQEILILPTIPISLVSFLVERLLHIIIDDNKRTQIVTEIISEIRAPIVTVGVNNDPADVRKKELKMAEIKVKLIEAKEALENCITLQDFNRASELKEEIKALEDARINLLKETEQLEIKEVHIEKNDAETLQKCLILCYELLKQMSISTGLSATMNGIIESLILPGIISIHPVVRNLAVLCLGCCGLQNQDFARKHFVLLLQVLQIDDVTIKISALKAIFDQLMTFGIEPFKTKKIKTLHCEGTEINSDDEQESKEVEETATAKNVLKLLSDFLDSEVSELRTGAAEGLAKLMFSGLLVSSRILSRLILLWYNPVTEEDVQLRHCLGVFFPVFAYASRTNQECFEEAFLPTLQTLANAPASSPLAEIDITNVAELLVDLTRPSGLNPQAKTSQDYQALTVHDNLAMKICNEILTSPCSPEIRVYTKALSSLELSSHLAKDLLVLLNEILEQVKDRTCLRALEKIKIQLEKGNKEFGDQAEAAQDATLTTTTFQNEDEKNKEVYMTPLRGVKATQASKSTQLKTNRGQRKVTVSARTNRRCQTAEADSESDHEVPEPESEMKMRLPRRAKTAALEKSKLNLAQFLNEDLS
UniProt Q9BYW2: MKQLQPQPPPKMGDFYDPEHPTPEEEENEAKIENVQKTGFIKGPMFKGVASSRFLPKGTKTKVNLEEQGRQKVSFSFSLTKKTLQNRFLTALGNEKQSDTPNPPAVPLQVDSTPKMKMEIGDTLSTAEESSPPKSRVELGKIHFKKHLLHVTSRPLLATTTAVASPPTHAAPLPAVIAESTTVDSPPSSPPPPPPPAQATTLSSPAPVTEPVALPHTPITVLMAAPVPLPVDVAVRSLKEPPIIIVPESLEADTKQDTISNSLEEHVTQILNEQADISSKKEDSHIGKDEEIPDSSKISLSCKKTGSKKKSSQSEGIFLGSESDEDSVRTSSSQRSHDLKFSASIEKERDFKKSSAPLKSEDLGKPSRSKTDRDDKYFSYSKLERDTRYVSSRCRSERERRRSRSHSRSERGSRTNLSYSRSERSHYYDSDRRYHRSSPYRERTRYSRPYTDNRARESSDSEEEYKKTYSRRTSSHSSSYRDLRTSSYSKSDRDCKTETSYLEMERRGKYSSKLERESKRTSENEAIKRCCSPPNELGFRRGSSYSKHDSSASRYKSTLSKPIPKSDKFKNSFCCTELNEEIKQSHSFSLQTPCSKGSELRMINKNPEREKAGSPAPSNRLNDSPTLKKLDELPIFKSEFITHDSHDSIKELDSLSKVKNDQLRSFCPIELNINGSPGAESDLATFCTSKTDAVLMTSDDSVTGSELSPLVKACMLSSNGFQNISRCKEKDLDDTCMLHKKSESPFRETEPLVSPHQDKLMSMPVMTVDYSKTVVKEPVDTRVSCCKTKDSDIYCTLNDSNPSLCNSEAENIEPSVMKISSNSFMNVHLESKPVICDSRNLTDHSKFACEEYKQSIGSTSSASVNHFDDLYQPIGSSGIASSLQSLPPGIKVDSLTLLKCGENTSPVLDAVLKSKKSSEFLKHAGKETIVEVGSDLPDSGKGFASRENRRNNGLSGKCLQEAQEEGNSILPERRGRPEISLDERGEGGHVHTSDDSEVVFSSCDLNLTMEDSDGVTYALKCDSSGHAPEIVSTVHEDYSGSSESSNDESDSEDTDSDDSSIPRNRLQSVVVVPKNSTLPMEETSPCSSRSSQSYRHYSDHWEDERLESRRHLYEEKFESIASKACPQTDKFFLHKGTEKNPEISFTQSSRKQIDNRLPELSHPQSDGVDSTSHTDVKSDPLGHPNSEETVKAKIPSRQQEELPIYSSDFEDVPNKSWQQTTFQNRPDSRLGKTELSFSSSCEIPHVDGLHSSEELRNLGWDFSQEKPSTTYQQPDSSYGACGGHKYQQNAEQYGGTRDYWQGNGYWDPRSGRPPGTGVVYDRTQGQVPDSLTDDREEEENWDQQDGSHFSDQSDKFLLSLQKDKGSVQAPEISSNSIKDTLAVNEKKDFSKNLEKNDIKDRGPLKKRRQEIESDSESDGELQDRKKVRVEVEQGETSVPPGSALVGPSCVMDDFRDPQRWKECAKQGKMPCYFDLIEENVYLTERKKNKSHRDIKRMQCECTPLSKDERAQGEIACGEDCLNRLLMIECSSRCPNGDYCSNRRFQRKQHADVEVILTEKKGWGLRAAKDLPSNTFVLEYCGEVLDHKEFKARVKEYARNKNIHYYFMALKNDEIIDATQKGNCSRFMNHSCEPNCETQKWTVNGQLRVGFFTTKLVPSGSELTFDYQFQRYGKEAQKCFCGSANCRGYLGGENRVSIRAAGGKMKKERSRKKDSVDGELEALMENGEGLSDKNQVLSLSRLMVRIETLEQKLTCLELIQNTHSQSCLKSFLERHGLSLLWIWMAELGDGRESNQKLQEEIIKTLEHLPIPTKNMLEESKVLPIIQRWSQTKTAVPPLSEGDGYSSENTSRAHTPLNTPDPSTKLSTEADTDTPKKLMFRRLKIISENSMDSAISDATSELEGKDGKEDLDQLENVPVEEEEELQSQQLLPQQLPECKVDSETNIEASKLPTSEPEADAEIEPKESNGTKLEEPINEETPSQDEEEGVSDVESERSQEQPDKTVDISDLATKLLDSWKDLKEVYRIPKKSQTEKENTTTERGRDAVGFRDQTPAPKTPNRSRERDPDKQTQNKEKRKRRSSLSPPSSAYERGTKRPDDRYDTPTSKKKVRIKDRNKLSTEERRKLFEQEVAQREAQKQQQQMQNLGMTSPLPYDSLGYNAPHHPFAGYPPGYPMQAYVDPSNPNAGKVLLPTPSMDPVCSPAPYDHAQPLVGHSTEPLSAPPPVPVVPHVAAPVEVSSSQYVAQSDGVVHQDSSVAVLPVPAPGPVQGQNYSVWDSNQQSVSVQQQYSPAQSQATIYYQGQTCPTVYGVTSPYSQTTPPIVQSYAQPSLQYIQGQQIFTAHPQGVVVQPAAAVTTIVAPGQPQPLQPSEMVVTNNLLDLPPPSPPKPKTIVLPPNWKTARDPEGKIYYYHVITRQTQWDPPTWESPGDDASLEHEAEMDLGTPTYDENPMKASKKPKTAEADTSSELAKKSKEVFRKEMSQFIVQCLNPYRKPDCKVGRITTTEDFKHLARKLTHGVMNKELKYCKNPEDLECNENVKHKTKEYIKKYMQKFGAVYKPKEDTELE
UniProt Q9BWD1: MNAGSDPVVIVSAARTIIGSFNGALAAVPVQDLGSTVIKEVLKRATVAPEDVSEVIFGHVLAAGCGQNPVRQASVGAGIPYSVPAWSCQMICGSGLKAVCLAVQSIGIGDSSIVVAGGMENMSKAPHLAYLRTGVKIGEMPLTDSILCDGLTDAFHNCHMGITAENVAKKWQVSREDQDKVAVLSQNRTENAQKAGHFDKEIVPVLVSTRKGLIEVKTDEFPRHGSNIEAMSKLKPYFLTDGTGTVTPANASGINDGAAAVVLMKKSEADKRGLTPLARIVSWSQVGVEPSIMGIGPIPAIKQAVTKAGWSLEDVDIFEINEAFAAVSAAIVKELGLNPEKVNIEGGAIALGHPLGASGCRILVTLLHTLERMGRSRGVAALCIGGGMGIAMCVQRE
UniProt Q9BRT2: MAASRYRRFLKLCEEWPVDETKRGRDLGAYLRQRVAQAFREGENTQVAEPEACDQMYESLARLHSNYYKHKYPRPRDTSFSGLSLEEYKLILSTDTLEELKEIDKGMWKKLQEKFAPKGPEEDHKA
UniProt Q99717: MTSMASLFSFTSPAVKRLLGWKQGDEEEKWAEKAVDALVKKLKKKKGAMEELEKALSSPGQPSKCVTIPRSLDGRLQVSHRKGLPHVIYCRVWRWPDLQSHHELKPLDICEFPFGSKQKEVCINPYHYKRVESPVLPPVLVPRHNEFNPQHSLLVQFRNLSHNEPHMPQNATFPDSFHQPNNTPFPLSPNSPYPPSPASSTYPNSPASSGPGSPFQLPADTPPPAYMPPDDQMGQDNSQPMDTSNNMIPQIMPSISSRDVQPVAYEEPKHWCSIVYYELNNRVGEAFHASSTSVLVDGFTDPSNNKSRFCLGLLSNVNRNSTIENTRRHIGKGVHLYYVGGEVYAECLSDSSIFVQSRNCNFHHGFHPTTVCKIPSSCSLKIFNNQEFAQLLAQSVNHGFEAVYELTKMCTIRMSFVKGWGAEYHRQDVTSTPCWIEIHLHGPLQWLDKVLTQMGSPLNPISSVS
UniProt Q9BU02: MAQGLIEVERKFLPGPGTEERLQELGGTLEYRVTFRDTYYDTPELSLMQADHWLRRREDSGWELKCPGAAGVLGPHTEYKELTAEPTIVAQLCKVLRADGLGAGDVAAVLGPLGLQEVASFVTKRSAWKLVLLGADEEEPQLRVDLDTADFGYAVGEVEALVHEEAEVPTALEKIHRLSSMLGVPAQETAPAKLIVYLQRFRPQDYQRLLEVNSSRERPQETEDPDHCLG
UniProt Q9BYX2: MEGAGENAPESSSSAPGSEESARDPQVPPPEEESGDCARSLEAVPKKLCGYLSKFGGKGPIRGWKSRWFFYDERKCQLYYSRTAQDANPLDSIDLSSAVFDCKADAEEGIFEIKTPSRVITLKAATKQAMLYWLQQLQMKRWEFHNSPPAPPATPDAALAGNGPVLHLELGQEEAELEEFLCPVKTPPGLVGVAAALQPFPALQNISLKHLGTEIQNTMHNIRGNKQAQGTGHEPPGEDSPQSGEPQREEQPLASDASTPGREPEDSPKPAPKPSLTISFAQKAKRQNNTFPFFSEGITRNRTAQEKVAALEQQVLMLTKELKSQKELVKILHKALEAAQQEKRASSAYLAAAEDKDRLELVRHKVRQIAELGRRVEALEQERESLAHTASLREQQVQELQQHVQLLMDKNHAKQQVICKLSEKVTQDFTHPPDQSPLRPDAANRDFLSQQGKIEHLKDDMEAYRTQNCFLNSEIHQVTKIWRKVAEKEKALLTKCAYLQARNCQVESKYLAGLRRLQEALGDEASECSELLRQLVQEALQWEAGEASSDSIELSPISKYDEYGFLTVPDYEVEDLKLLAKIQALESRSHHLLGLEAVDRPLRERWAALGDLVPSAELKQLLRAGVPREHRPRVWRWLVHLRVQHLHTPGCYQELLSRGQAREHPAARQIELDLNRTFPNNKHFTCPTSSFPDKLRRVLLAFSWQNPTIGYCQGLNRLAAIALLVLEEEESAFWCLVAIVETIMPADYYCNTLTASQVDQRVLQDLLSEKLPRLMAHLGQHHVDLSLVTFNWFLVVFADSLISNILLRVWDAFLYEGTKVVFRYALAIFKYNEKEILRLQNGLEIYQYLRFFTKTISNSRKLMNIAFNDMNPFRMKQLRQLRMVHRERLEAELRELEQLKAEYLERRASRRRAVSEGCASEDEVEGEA

± gives the standard deviation of the averaged measurements. The list shows a part of the results, in another mix than the full data.

Compound in the first assay: Nc1ncnc2c1ncn2[C@@H]1O[C@H](COP(=O)(O)OP(=O)(O)OP(=O)(O)O)[C@@H](O)[C@H]1O [adenosine triphosphate]
Nature of the assay: NP40-soluble protein abundance relative to vehicle (solubility fold change) (ratio); higher = more soluble protein in presence of ATP. The settings on record: concentration: 1mM. The essentials:
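Values are fold changes against the detergent-processed vehicle, based on vsn-normalised intensities. Jurkat crude lysate was treated at eight concentrations from 0.1 to 10 mM (10 min at room temperature, then 3 min at 37 °C), solubilised with 0.8% NP40 and benzonase, ultracentrifuged and analysed by TMT-labelled LC-MS/MS over three independent experiments.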
In the case of DOK1 (UniProt Q99704), the NP40-soluble protein abundance amounted to 0.99 ± 0.051.

For the target UniProt Q9BTY7, the NP40-soluble protein abundance came out at 0.979 ± 0.084.

For the target PARK7 (UniProt Q99497), the NP40-soluble protein abundance was 0.964 ± 0.029.

Turning to UniProt Q99490-2|Q99490, the NP40-soluble protein abundance was found to be 0.919 ± 0.029.

For the target RPAP1 (UniProt Q9BWH6), the NP40-soluble protein abundance is 1 ± 0.029.

For the target BCL7B (UniProt Q9BQE9), the NP40-soluble protein abundance was determined as 0.981 ± 0.13.

Take UniProt Q9BTD8 and related entries: the NP40-soluble protein abundance came out at 1.11 ± 0.023.

UniProt Q9BY12 and related entries: the NP40-soluble protein abundance turned out to be 1.06 ± 0.059.

UBXN6 (UniProt Q9BZV1): the NP40-soluble protein abundance stood at 0.957 ± 0.019.

With UniProt Q99828 and related entries, the NP40-soluble protein abundance was determined as 1.04 ± 0.088.

Take UniProt Q9BUB5 and related entries: the NP40-soluble protein abundance stood at 1.03 ± 0.028.

Turning to PSMG3 (UniProt Q9BT73), the NP40-soluble protein abundance amounted to 0.95 ± 0.022.

As to ACBD6 (UniProt Q9BR61), the NP40-soluble protein abundance is 0.978 ± 0.02.

Consider NCAPG (UniProt Q9BPX3), for which the NP40-soluble protein abundance was 0.99 ± 0.033.

Consider UniProt Q99707 and related entries, for which the NP40-soluble protein abundance is 0.966 ± 0.021.

For the target SETD2 (UniProt Q9BYW2), the NP40-soluble protein abundance turned out to be 1.04 ± 0.065.

TIPIN (UniProt Q9BVW5): the NP40-soluble protein abundance amounted to 0.954 ± 0.057.

For UniProt Q9BXP5-2|Q9BXP5-3|Q9BXP5-4, the NP40-soluble protein abundance is 1.06 ± 0.041.

Regarding ARID3A (UniProt Q99856), the NP40-soluble protein abundance turned out to be 0.985 ± 0.044.

Take ACAT2 (UniProt Q9BWD1): the NP40-soluble protein abundance amounted to 0.959 ± 0.049.

As for UniProt Q9BRT2 and related entries, the NP40-soluble protein abundance turned out to be 0.957 ± 0.074.

As to PUS3 (UniProt Q9BZE2), the NP40-soluble protein abundance stood at 0.989 ± 0.033.

With TM9SF2 (UniProt Q99805), the NP40-soluble protein abundance worked out at 1.07 ± 0.16.

For SMAD5 (UniProt Q99717), the NP40-soluble protein abundance was determined as 1.08 ± 0.089.

For the target UniProt Q9BTE3 and related entries, the NP40-soluble protein abundance is 1.03 ± 0.072.

For the target ADI1 (UniProt Q9BV57), the NP40-soluble protein abundance came to 0.975 ± 0.047.

With THTPA (UniProt Q9BU02), the NP40-soluble protein abundance came out at 0.888 ± 0.08.

On to UniProt Q9BT22 and related entries, for which the NP40-soluble protein abundance is 0.984 ± 0.1.

Consider UniProt Q9BSI4-2, for which the NP40-soluble protein abundance is 1.29 ± 0.06.

For UniProt Q9BSH4, the NP40-soluble protein abundance is 0.975 ± 0.016.

As for UniProt Q9BY43 and related entries, the NP40-soluble protein abundance was determined as 1.04 ± 0.011.

In the case of UniProt Q9BYX2 and related entries, the NP40-soluble protein abundance was 0.995 ± 0.093.

Take UniProt Q99538 and related entries: the NP40-soluble protein abundance stood at 0.924 ± 0.018.

As to PHF20 (UniProt Q9BVI0), the NP40-soluble protein abundance is 1.14 ± 0.026.

Regarding DIDO1 (UniProt Q9BTC0), the NP40-soluble protein abundance was found to be 1.16 ± 0.073.

Still in this assay, the particulars now being: concentration: 2mM.
For the target DOK1 (UniProt Q99704), the NP40-soluble protein abundance was 0.985 ± 0.043.

For UniProt Q9BTY7, the NP40-soluble protein abundance was 0.983 ± 0.075.

Take PARK7 (UniProt Q99497): the NP40-soluble protein abundance is 0.935 ± 0.012.

With UniProt Q99490-2|Q99490, the NP40-soluble protein abundance was determined as 0.907 ± 0.025.

As to RPAP1 (UniProt Q9BWH6), the NP40-soluble protein abundance worked out at 0.994 ± 0.015.

Regarding BCL7B (UniProt Q9BQE9), the NP40-soluble protein abundance came out at 1.03 ± 0.18.

Take UniProt Q9BTD8 and related entries: the NP40-soluble protein abundance worked out at 1.13 ± 0.011.

Turning to UniProt Q9BY12 and related entries, the NP40-soluble protein abundance came out at 1.09 ± 0.033.

As to UBXN6 (UniProt Q9BZV1), the NP40-soluble protein abundance is 0.932 ± 0.039.

For UniProt Q99828 and related entries, the NP40-soluble protein abundance was found to be 1 ± 0.028.

In the case of UniProt Q9BUB5 and related entries, the NP40-soluble protein abundance turned out to be 1.02 ± 0.031.

As to PSMG3 (UniProt Q9BT73), the NP40-soluble protein abundance was determined as 0.968 ± 0.033.

Take ACBD6 (UniProt Q9BR61): the NP40-soluble protein abundance worked out at 1.01 ± 0.06.

Regarding NCAPG (UniProt Q9BPX3), the NP40-soluble protein abundance was 0.988 ± 0.023.

As for UniProt Q99707 and related entries, the NP40-soluble protein abundance turned out to be 1.01 ± 0.053.

In the case of SETD2 (UniProt Q9BYW2), the NP40-soluble protein abundance came out at 1.08 ± 0.02.

For TIPIN (UniProt Q9BVW5), the NP40-soluble protein abundance turned out to be 0.924 ± 0.018.

For the target UniProt Q9BXP5-2|Q9BXP5-3|Q9BXP5-4, the NP40-soluble protein abundance came to 1.08 ± 0.037.

For ARID3A (UniProt Q99856), the NP40-soluble protein abundance turned out to be 0.974 ± 0.034.

For ACAT2 (UniProt Q9BWD1), the NP40-soluble protein abundance was 0.947 ± 0.019.

Turning to UniProt Q9BRT2 and related entries, the NP40-soluble protein abundance was determined as 0.95 ± 0.091.

As for PUS3 (UniProt Q9BZE2), the NP40-soluble protein abundance came out at 1.02 ± 0.074.

Consider TM9SF2 (UniProt Q99805), for which the NP40-soluble protein abundance was found to be 1.04 ± 0.087.

As for SMAD5 (UniProt Q99717), the NP40-soluble protein abundance amounted to 1.133 ± 0.0084.

With UniProt Q9BTE3 and related entries, the NP40-soluble protein abundance was determined as 1.01 ± 0.057.

Consider ADI1 (UniProt Q9BV57), for which the NP40-soluble protein abundance came to 0.977 ± 0.062.

In the case of THTPA (UniProt Q9BU02), the NP40-soluble protein abundance came out at 0.979 ± 0.051.

On to UniProt Q9BT22 and related entries, for which the NP40-soluble protein abundance was determined as 0.971 ± 0.056.

Consider UniProt Q9BSI4-2, for which the NP40-soluble protein abundance worked out at 1.32 ± 0.13.

Regarding UniProt Q9BSH4, the NP40-soluble protein abundance turned out to be 0.971 ± 0.02.

As to UniProt Q9BY43 and related entries, the NP40-soluble protein abundance was 1.034 ± 0.0097.

Regarding UniProt Q9BYX2 and related entries, the NP40-soluble protein abundance worked out at 0.986 ± 0.033.

UniProt Q99538 and related entries: the NP40-soluble protein abundance turned out to be 0.968 ± 0.036.

PHF20 (UniProt Q9BVI0): the NP40-soluble protein abundance was 1.18 ± 0.049.

As for DIDO1 (UniProt Q9BTC0), the NP40-soluble protein abundance is 1.2 ± 0.053.

The same assay, now with this note: concentration: 4mM.
For the target DOK1 (UniProt Q99704), the NP40-soluble protein abundance was 1.08 ± 0.16.

UniProt Q9BTY7: the NP40-soluble protein abundance was 1 ± 0.063.

As to PARK7 (UniProt Q99497), the NP40-soluble protein abundance came out at 0.888 ± 0.024.

UniProt Q99490-2|Q99490: the NP40-soluble protein abundance amounted to 0.899 ± 0.032.

In the case of RPAP1 (UniProt Q9BWH6), the NP40-soluble protein abundance was 1.01 ± 0.031.

Take BCL7B (UniProt Q9BQE9): the NP40-soluble protein abundance is 0.983 ± 0.14.

Take UniProt Q9BTD8 and related entries: the NP40-soluble protein abundance is 1.18 ± 0.038.

UniProt Q9BY12 and related entries: the NP40-soluble protein abundance was 1.19 ± 0.043.

For UBXN6 (UniProt Q9BZV1), the NP40-soluble protein abundance was 0.933 ± 0.022.

Regarding UniProt Q99828 and related entries, the NP40-soluble protein abundance is 1.03 ± 0.05.

In the case of UniProt Q9BUB5 and related entries, the NP40-soluble protein abundance is 1.01 ± 0.011.

Turning to PSMG3 (UniProt Q9BT73), the NP40-soluble protein abundance was 0.9633 ± 0.0071.

With ACBD6 (UniProt Q9BR61), the NP40-soluble protein abundance amounted to 1.01 ± 0.07.

On to NCAPG (UniProt Q9BPX3), for which the NP40-soluble protein abundance was found to be 0.974 ± 0.016.

As for UniProt Q99707 and related entries, the NP40-soluble protein abundance stood at 0.996 ± 0.042.

As to SETD2 (UniProt Q9BYW2), the NP40-soluble protein abundance is 1.09 ± 0.044.

Turning to TIPIN (UniProt Q9BVW5), the NP40-soluble protein abundance worked out at 0.923 ± 0.044.

As to UniProt Q9BXP5-2|Q9BXP5-3|Q9BXP5-4, the NP40-soluble protein abundance was 1.14 ± 0.051.

Take ARID3A (UniProt Q99856): the NP40-soluble protein abundance amounted to 0.954 ± 0.069.

On to ACAT2 (UniProt Q9BWD1), for which the NP40-soluble protein abundance came to 0.923 ± 0.034.

Consider UniProt Q9BRT2 and related entries, for which the NP40-soluble protein abundance worked out at 0.964 ± 0.06.

As to PUS3 (UniProt Q9BZE2), the NP40-soluble protein abundance was 1.04 ± 0.055.

TM9SF2 (UniProt Q99805): the NP40-soluble protein abundance came out at 1.06 ± 0.13.

SMAD5 (UniProt Q99717): the NP40-soluble protein abundance was found to be 1.115 ± 0.0078.

Take UniProt Q9BTE3 and related entries: the NP40-soluble protein abundance is 1.01 ± 0.038.

As to ADI1 (UniProt Q9BV57), the NP40-soluble protein abundance was 0.937 ± 0.055.

Take THTPA (UniProt Q9BU02): the NP40-soluble protein abundance was found to be 0.935 ± 0.093.

As for UniProt Q9BT22 and related entries, the NP40-soluble protein abundance came out at 0.96 ± 0.078.

Consider UniProt Q9BSI4-2, for which the NP40-soluble protein abundance was found to be 1.49 ± 0.059.

Turning to UniProt Q9BSH4, the NP40-soluble protein abundance was found to be 0.981 ± 0.033.

On to UniProt Q9BY43 and related entries, for which the NP40-soluble protein abundance amounted to 1.02 ± 0.11.

For UniProt Q9BYX2 and related entries, the NP40-soluble protein abundance turned out to be 1.03 ± 0.098.

As to UniProt Q99538 and related entries, the NP40-soluble protein abundance came to 0.903 ± 0.021.

Consider PHF20 (UniProt Q9BVI0), for which the NP40-soluble protein abundance was determined as 1.31 ± 0.1.

In the case of DIDO1 (UniProt Q9BTC0), the NP40-soluble protein abundance worked out at 1.24 ± 0.031.
